Laboratory results from PubChem BioAssay AID2551 (National Center for Advancing Translational Sciences (NCATS), 2010).
Screen size: about 310,000 compounds; about 17,000 (5.5%) were called active. The shares of active, inactive and inconclusive entries below differ from those in the screen. The call rests on the fitted dose curve; in most records, active means well fitted inhibition curve with a large enough effect; inconclusive means small, poorly fitted or top-dose-only effect, or effect the other way; inactive means no such curve, though single readings can be large or run the other way. Potencies of inconclusive entries are doubtful fits and often do not repeat.

Sequences of proteins named here, by UniProt entry; tags and fusion partners are left off. A change or cut given only in a name is not applied to a line headed by its entry.
UniProt P51450: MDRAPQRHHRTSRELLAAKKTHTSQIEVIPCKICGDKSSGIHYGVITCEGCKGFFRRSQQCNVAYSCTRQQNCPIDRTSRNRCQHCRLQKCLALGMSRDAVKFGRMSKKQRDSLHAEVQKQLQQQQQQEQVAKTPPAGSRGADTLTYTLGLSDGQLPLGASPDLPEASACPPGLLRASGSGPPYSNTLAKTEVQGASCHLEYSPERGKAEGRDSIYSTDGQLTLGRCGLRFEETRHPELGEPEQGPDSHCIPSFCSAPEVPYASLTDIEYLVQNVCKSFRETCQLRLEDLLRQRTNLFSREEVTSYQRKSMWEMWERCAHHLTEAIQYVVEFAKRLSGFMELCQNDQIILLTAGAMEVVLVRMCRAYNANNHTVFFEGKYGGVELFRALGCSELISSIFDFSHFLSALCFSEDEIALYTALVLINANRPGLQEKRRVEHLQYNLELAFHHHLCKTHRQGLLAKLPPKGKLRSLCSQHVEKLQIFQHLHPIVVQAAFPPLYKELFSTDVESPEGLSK

molecular target: Nuclear receptor ROR-gamma (Mus musculus) (UniProt P51450); experiment: qHTS for inhibitors of ROR gamma transcriptional activity; settings: Drosophila S2 Gal4-RORgamma UAS-luciferase reporter, 20 h; activity change, negative = inhibition: at 53.6 µM (top of the series); further: nearly all actives have a fitted effect of over 60% in size
Procedure, shortened: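 ROR gamma transcriptional activity was tracked as Gal4-UAS luciferase output in stably transfected Drosophila Schneider cells, with compound added 1 hr before 700 uM copper sulfate induction and a 20 hr ambient-temperature incubation.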
On the % scale 0 is the no-effect control and ±100 the full control effect; potency means the concentration at half of the fitted maximal effect.

| Structure (SMILES) | Potency | activity change, negative = inhibition |
| --- | --- | --- |
| Cc1cccc(-c2n[nH]c(=S)n2/N=C/c2ccc(C)s2)c1 | active: 11.2 µM | – |
| CC(C)NC(=O)c1onc(CSc2ccc(Cl)cc2)c1C(=O)O | inconclusive: 35.5 µM [inhibitor, single point] | – |
| N#CCCn1cc(C(=O)Nc2ccccn2)c(-c2ccccc2)n1 | – | inactive: 18.9% |
| CCC1C(=O)N=C(SCC(=O)Nc2ccc(C)cc2)N(c2ccccc2)C1=O (centres undefined) | inconclusive: 20 µM [activator, partial curve, poor fit] | – |
| O=C(CSc1nc2ccccc2s1)NNC(=S)Nc1ccc(Cl)cc1 | active: 5.01 µM | – |
| COc1ccc(-c2csc3ncnc(Oc4cccc5ccc(C)nc45)c23)cc1 | inconclusive: 35.5 µM [activator, single point] | – |
| CCOc1cc(/C=C2\C(=O)ON=C2c2ccccc2)cc(Br)c1O | inconclusive: 14.1 µM [inhibitor, single point] | – |
| CC1CCCCC1NC(=O)c1ccc(S(=O)(=O)NCc2ccco2)cc1 (centres undefined) | inconclusive: 0.891 µM [activator, full curve, poor fit] | – |
| COc1ccc(/C=N/NC(=O)c2cccc([N+](=O)[O-])c2)cc1OS(=O)(=O)c1ccccc1 | inconclusive: 35.5 µM [inhibitor, single point] | – |
| Cc1onc(-c2ccccc2)c1C(=O)Nc1ccc(-c2nnc3n2CCCCC3)cc1 | inconclusive: 0.891 µM [activator, full curve, poor fit] | – |
| CC(C)(C)C(=O)NC1CC2CCCC(C1)N2C(=O)Nc1cccc(Cl)c1 (centres undefined) | inconclusive: 0.005 µM [inhibitor, full curve, poor fit] | – |
| CN1/C(=C\C(=O)COC(=O)c2ccccc2O)C(C)(C)c2ccccc21 | inconclusive: 35.5 µM [activator, single point] | – |
| O=C(NN=C1CCCC1)c1[nH]c2ccc(Br)cc2c1-c1ccccc1 | active: 11.2 µM | – |
| O=C(N/N=C/c1[nH]c2ccccc2c1Cl)c1cccc(Br)c1 | active: 3.16 µM | – |
| C=CCNc1nc(-c2c(C)nc3sccn23)cs1 | inconclusive: 15.8 µM [activator, single point] | – |
| Cc1ccc(Nc2ccc(C(=O)N3CCCC3)cn2)c(C)c1 | inconclusive: 35.5 µM [activator, single point] | – |
| Cc1cc2oc(=O)cc(CN3CCCCC3)c2cc1C(C)C | inconclusive: 12.6 µM [inhibitor, single point] | – |
| COc1cccc(-c2csc(N3CCN(C(=S)Nc4ccccc4C)CC3)n2)c1 | active: 7.08 µM | – |
| Cc1ccc(S(=O)(=O)NC(C)(C)CSc2ccccn2)cc1 | – | inactive: 21.9% |
| Cn1cnc2cc(NC(=O)c3ccco3)ccc21 | inconclusive: 12.6 µM [inhibitor, single point] | – |
| CCOC(=O)c1c(C)[nH]c(N=Nc2cccc(OC)c2)c1C | active: 3.98 µM | – |
| COc1ccc(C(=O)Nc2nc3ccc(OC)cc3s2)cc1 | active: 1.41 µM | – |
| COc1ccccc1CNc1ncnc2ccc(-c3cccnc3)cc12 | inconclusive: 20 µM [activator, single point] | – |
| O=[N+]([O-])c1cccc(NC(=S)Nc2nc(-c3ccc(Cl)cc3Cl)cs2)c1 | active: 2 µM | – |
| C/C(=N\Nc1nc2c(s1)CCCC2)c1ccccc1 | active: 12.6 µM | – |

Full records from above. Values in the order: Potency	activity change, negative = inhibition
COc1ccc(-c2csc3ncnc(Oc4cccc5ccc(C)nc45)c23)cc1 as listed: inconclusive: 35.5 µM [activator, single point]	–
Cc1ccc(S(=O)(=O)NC(C)(C)CSc2ccccn2)cc1 as listed: –	inactive: 21.9%

More entries follow:

| Structure (SMILES) | Potency | activity change, negative = inhibition |
| --- | --- | --- |
| Cc1sc(N)c(C(=O)c2ccccc2Cl)c1C | – | inactive: -22.6% |
| O=C(NC1CCCC1)C(c1ccco1)N(Cc1ccccc1)C(=O)c1csnn1 (centres undefined) | inconclusive: 35.5 µM [activator, single point] | – |
| CC1CCN(c2oc(-c3ccccc3F)nc2C#N)CC1 | inconclusive: 12.6 µM [activator, partial curve] | – |
| Cc1cc(SCC(=O)c2ccc(O)c(O)c2)n2nc(C)c(-c3ccccc3)c2n1 | – | inactive: -22.9% |
| CCOc1ccc(C(=O)c2ccc(O)c(O)c2O)cc1 | – | inactive: -23.2% |
| CC(=O)CC(=O)Nc1ccc(C(N)=O)cc1 | active: 11.2 µM | – |
| CSc1ccc(CN(C)C(=O)C(Cc2ccccc2)NC(=O)c2ccccc2)cc1 (centres undefined) | inconclusive: 7.08 µM [activator, partial curve] | – |
| CC1CCCN(C(=O)C(=O)c2cn(CC(=O)N3CCCCCC3)c3ccccc23)C1 (centres undefined) | inconclusive: 35.5 µM [activator, single point] | – |
| O=C(ON=C1CCN(c2ccc([N+](=O)[O-])cc2)CC1)c1ccccc1 | inconclusive: 20 µM [activator, single point] | – |
| Cc1ccc(-c2cc(C(=O)NN)n[nH]2)o1 | – | inactive: -32.5% |
| CC1(C)CCC[C@@](C)([C@H]2CC[C@]3(C)[C@@H]2[C@H](O)C[C@@H]2[C@@]4(C)CC[C@H](O)C(C)(C)[C@@H]4[C@@H](O)C[C@]23C)O1 | inconclusive: 0.199 µM [inhibitor, full curve] | – |
| O=C(NCc1ccccn1)c1ccc2ccccc2n1 | active: 3.55 µM | – |
| c1ccc(-c2ncnc3cc4n(c23)CCC4)cc1 | inconclusive: 5.62 µM [activator, partial curve] | – |
| CC(C)(C)Sc1ccc2nc3c(n2c1)CCCC3 | active: 3.98 µM | – |
| O=[N+]([O-])c1cc(-c2nnc(N3CCOCC3)c3ccccc23)ccc1N1CCOCC1 | inconclusive: 3.98 µM [inhibitor, single point] | – |
| NC(=O)NC(=O)C(Nc1ccc(N2CCCCC2)cc1)c1ccccc1 (centres undefined) | inconclusive: 1.58 µM [inhibitor, partial curve] | – |
| Cn1c(=O)n(C)c2cc(NC(=O)COc3ccc(F)cc3)ccc21 | – | inactive: 18.7% |
| O=C(CC1SC(=O)N(c2ccccc2)C1=O)Nc1ccc(Cl)cc1 (centres undefined) | active: 15.8 µM | – |
| COc1ccc(C(=O)N2CCCN(C)CC2)c(OC)c1 | – | inactive: 21.7% |
| CS(=O)(=O)N(CCc1ccccc1)CC(=O)N1CCN(Cc2ccccc2)CC1 | – | inactive: 7.59% |
| CC(SC1=NCCS1)C(=O)Nc1nnc(-c2ccc(Br)cc2)s1 (centres undefined) | active: 8.91 µM | – |
| O=S(=O)(NCC(Nc1ccccc1)c1ccccc1)c1ccc(Cl)cc1 (centres undefined) | – | inactive: 25.4% |
| Cn1c(/C=C/c2ccc(Br)cc2)c([N+](=O)[O-])c(=O)n(C)c1=O | active: 11.2 µM | – |
| COc1cc(C(=O)NNC(=O)NC2CCCCC2)cc(OC)c1OC | inconclusive: 2.82 µM [activator, full curve, poor fit] | – |
